{
  "source": "paper doi:10.1101/2025.06.12.659263",
  "assay_in_all_cases": "split reporter",
  "key": {"[1]": {"target": "T1, Msb4_(22-81)-Spa2CRU (S. cerevisiae) (UniProt Q12317+P23201)"}, "[2]": {"target": "Spa2CRU (S. cerevisiae) (UniProt P23201)"}, "[3]": {"target": "T2, Msb3CRU (S. cerevisiae) (UniProt P48566)", "T2 sequence": "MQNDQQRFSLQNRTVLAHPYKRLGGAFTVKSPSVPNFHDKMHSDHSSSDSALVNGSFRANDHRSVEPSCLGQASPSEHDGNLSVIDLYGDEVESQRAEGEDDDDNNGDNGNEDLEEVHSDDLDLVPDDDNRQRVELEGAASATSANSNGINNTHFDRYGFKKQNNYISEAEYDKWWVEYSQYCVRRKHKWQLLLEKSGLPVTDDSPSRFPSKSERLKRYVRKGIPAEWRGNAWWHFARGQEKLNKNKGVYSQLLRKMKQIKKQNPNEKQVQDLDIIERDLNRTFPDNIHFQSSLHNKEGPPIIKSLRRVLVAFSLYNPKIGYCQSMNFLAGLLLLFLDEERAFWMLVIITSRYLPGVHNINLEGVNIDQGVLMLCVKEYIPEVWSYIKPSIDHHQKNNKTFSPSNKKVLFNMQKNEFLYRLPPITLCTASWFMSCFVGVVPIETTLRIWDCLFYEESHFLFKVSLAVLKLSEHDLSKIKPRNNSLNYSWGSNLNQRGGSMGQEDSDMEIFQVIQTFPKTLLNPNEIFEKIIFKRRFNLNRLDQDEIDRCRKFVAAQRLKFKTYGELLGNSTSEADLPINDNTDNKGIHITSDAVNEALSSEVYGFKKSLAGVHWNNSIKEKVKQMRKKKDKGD"}, "[4]": {"target": "T3, Msb3_(Δ76-93)CRU (S. cerevisiae) (UniProt P48566)", "T3 sequence": "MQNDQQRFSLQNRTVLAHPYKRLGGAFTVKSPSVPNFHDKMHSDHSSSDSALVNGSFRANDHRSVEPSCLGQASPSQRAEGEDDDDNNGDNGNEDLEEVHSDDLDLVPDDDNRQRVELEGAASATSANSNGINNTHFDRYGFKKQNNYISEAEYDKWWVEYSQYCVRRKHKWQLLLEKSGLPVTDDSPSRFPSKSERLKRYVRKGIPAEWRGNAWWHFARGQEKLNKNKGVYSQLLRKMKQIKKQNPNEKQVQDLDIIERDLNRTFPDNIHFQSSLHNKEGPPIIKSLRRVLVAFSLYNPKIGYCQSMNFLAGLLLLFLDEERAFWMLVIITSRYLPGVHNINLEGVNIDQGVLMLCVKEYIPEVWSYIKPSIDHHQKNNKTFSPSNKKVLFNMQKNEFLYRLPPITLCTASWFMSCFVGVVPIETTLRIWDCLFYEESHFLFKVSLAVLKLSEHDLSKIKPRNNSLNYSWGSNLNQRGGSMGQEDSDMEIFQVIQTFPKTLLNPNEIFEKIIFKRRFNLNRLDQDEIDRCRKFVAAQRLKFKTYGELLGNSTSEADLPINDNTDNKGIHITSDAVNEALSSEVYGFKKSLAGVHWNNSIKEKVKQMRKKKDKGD"}, "[5]": {"target": "T4, Msb4_(Δ27-44)CRU (S. cerevisiae) (UniProt Q12317)", "T4 sequence": "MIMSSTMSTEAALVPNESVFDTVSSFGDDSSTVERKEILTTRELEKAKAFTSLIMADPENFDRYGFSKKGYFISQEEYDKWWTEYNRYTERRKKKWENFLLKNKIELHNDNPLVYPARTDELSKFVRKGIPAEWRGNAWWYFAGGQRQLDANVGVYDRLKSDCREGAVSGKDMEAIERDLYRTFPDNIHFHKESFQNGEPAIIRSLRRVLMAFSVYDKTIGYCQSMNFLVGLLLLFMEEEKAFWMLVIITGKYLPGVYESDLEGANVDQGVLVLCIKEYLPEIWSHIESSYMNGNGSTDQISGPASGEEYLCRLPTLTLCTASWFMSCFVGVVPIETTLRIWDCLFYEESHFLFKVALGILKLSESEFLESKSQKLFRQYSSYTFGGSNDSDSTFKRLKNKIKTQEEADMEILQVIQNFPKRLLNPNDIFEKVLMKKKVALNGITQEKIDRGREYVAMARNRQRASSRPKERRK"}, "[6]": {"target": "T5, Msb4CRU (S. cerevisiae) (UniProt Q12317)", "T5 sequence": "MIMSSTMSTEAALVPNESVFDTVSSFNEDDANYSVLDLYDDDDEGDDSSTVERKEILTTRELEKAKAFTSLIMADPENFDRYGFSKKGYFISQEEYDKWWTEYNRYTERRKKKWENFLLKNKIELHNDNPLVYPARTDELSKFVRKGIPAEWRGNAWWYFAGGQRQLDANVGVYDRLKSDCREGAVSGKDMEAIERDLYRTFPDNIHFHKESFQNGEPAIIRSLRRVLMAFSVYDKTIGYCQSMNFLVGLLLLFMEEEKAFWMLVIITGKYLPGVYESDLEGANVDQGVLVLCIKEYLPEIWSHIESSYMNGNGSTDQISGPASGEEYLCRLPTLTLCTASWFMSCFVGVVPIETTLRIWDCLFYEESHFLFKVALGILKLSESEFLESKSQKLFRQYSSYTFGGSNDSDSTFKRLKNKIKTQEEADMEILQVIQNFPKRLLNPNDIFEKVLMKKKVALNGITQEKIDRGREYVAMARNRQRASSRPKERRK"}, "[7]": {"target": "SHD1CRU (S. cerevisiae) (UniProt P23201)"}, "[8]": {"target": "SHD1CRU L109A (S. cerevisiae) (UniProt P23201)"}, "[9]": {"target": "SHD1CRU L48A (S. cerevisiae) (UniProt P23201)"}, "[10]": {"target": "SHD1CRU L101A and L109A (S. cerevisiae) (UniProt P23201)"}, "[11]": {"target": "SHD1CRU L51A (S. cerevisiae) (UniProt P23201)"}, "[12]": {"target": "SHD1_(K97D) (S. cerevisiae) (UniProt P23201)"}, "[13]": {"target": "SHD1CRU L48A and L51A (S. cerevisiae) (UniProt P23201)"}, "[14]": {"target": "SHD1CRU L101A (S. cerevisiae) (UniProt P23201)"}, "[15]": {"target": "SHD1CRU (S. cerevisiae) (UniProt P23201)", "remark": "listed apart in the source"}, "[16]": {"target": "Msb4_(22-81Δ35-39)-Spa2CRU (S. cerevisiae) (UniProt Q12317+P23201)"}, "[17]": {"target": "T1, Msb4_(22-81)-Spa2CRU (S. cerevisiae)", "remark": "listed apart in the source"}, "[18]": {"target": "Spa2CRU (S. cerevisiae) (UniProt P23201)", "remark": "listed apart in the source"}},
  "note": "Read-outs that look alike come from different tables or passages of the source. No constants are given. Whether binding was seen depends on the method and setting. Binding seen in cells or lysates may run through a third protein. Some entries that bind do so weakly or less than the wild type.",
  "data": [
    {"molecule": "Nub-Aip5 (from UniProt P43597 1-1233)", "values": [
      {"measurement": "binding", "setting": "[1]", "value": "binds"},
      {"measurement": "binding", "setting": "[2]", "value": "binds"}
    ]},
    {"molecule": "Nub-Sec4 (protein, UniProt P07560 1-215) MSGLRTVSASSGNGKSYDSIMKILLIGDSGVGKSCLLVRFVEDKFNPSFITTIGIDFKIKTVDINGKKVKLQLWDTAGQERFRTITTAYYRGAMGIILVYDVTDERTFTNIKQWFKTVNEHANDEAQLLLVGNKSDMETRVVTADQGEALAKELGIPFIESSAKNDDNVNEIFFTLAKLIQEKIDSNKLVGVGNGKEGNISINSGSGNSSKSNCC", "values": [
      {"measurement": "binding", "setting": "[3]", "value": "binds"},
      {"measurement": "binding", "setting": "[4]", "value": "binds"},
      {"measurement": "binding", "setting": "[5]", "value": "binds"},
      {"measurement": "binding", "setting": "[6]", "value": "binds"}
    ]},
    {"molecule": "Nub-Msb4 (protein, UniProt Q12317 1-492) MIMSSTMSTEAALVPNESVFDTVSSFNEDDANYSVLDLYDDDDEGDDSSTVERKEILTTRELEKAKAFTSLIMADPENFDRYGFSKKGYFISQEEYDKWWTEYNRYTERRKKKWENFLLKNKIELHNDNPLVYPARTDELSKFVRKGIPAEWRGNAWWYFAGGQRQLDANVGVYDRLKSDCREGAVSGKDMEAIERDLYRTFPDNIHFHKESFQNGEPAIIRSLRRVLMAFSVYDKTIGYCQSMNFLVGLLLLFMEEEKAFWMLVIITGKYLPGVYESDLEGANVDQGVLVLCIKEYLPEIWSHIESSYMNGNGSTDQISGPASGEEYLCRLPTLTLCTASWFMSCFVGVVPIETTLRIWDCLFYEESHFLFKVALGILKLSESEFLESKSQKLFRQYSSYTFGGSNDSDSTFKRLKNKIKTQEEADMEILQVIQNFPKRLLNPNDIFEKVLMKKKVALNGITQEKIDRGREYVAMARNRQRASSRPKERRK", "values": [
      {"measurement": "binding", "setting": "[7]", "value": "binds"},
      {"measurement": "binding", "setting": "[8]", "value": "binds"},
      {"measurement": "binding", "setting": "[9]", "value": "binds"},
      {"measurement": "binding", "setting": "[10]", "value": "no binding"},
      {"measurement": "binding", "setting": "[11]", "value": "binds"},
      {"measurement": "binding", "setting": "[12]", "value": "binds"},
      {"measurement": "binding", "setting": "[13]", "value": "no binding"},
      {"measurement": "binding", "setting": "[14]", "value": "binds"},
      {"measurement": "binding", "setting": "[15]", "value": "binds"},
      {"measurement": "binding", "setting": "[16]", "value": "binds"},
      {"measurement": "binding", "setting": "[17]", "value": "no binding"},
      {"measurement": "binding", "setting": "[18]", "value": "binds"}
    ]}
  ]
}
